This is one part of the list.

Amino acid sequences for entries named in this document (tags omitted).
UniProt Q0JBA9, entry or part of it: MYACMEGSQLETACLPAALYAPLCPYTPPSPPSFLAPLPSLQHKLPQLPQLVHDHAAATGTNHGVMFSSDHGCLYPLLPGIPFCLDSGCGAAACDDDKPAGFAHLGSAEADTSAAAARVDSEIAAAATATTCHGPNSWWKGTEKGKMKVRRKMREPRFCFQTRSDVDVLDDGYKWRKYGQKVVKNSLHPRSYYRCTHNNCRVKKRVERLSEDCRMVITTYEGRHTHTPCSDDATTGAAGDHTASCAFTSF

This test has as its target OsWRKY34 (Oryza sativa, UniProt Q0JBA9 1-250). Kind of test: protein-binding microarray (RPBM); PBS, 2% BSA, 51.3 ng/ul salmon testes DNA, 50 uM zinc acetate, 200 nM TF, 25 C, 1 h; high values mean tight binding. Particulars: protein: recombinant; tags: N-terminal polyhistidine and DsRed monomer fusion (pET32a); label: CyDye5-dUTP incorporated in the synthesized complementary strand; 3' TTTTT single-stranded linker to array surface; dsDNA, one strand shown. In a few lines: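 Transcription factors were each fused at the N-terminus to a polyhistidine tag plus DsRed and expressed in E. coli BL21-CodonPlus before Ni–NTA purification. Binding to a double-stranded custom Agilent array was carried out with 200 nM protein at 25 °C for 1 h in PBS, 2% BSA, salmon testes DNA and 50 µM zinc acetate. The binding signal is per-feature fluorescence intensity, in arbitrary units, on an Axon 4000B scanner.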
Take “CACCATCCTTCCCCGGTGCTTGCCCATGTACCTCCTCTCACGGAGTCACCTAGTGCAG”: the binding signal was 8680 fluorescence intensity (a.u.). Under “AGAGGGATGGGTGTTTGATTGGAGTGGGTTGGGAGCCATGCGGAGTCACCTAGTGCAG” stands 9390 fluorescence intensity (a.u.); under “TGTTGGCATCTATTATCCCACATCGACGTAACCATTTTTACGGAGTCACCTAGTGCAG”, 10800 fluorescence intensity (a.u.). “TATATTATCTTGATTTTCTGATCCCGACATCTAGCCATTACGGAGTCACCTAGTGCAG”: the binding signal is 9680 fluorescence intensity (a.u.). Under “GGCCTATTTAGTTTGGTGTCATTTTAAATCATACCACTATCGGAGTCACCTAGTGCAG” stands 8180 fluorescence intensity (a.u.); under “AATAGATGACGTTGTTGACTTTTTCTCATATGTTTGACCACGGAGTCACCTAGTGCAG”, 13000 fluorescence intensity (a.u.); under “TCTCTCTCTCTCTCTCTCTCTACTCTCTCCCTACAAGTTTCGGAGTCACCTAGTGCAG”, 10100 fluorescence intensity (a.u.). Under “CTATCGCCACATCTCACCGGCTGCAATAATTGGGCATATCCGGAGTCACCTAGTGCAG” stands 9190 fluorescence intensity (a.u.); under “ATAAGGGGTGAGGATCATAGCTCATGTTGTTTGACGGTTTCGGAGTCACCTAGTGCAG”, 9440 fluorescence intensity (a.u.). Under “GTTCATCGTATTTTTTTTTCTTTGAGTACCATTGACATGTCGGAGTCACCTAGTGCAG” stands 8710 fluorescence intensity (a.u.). As to “TACTACTCTTCTTCTTCTTCTTCTCTTCTTCTTCATTGGACGGAGTCACCTAGTGCAG”, the binding signal is 9400 fluorescence intensity (a.u.). Under “TCCCAACGCCCAACCTGCACACACTTCACTCTCGCTGCTGCGGAGTCACCTAGTGCAG” stands 9290 fluorescence intensity (a.u.); under “AGCTGGTCATATTCTATGTTGATTATCTTCATGGTATGAACGGAGTCACCTAGTGCAG”, 9730 fluorescence intensity (a.u.); under “GCCACTGCCGCCTCGCCTCGCCTCGAGCTCCCACCGCCGCCGGAGTCACCTAGTGCAG”, 9300 fluorescence intensity (a.u.). Turning to “CCAAAATTTTAAGGTGTTTGGATGATATGGCTACCACTTACGGAGTCACCTAGTGCAG”, the binding signal is 8090 fluorescence intensity (a.u.).

Consider “AGAAGTTGTTCTTCCCATCTTGTACCATCTTATATGCACTCGGAGTCACCTAGTGCAG”, for which the binding signal is 8600 fluorescence intensity (a.u.).

As to “ATATAAGTGACTTTGAGGTTTTGCTTGCACTGTTTGATCACGGAGTCACCTAGTGCAG”, the binding signal was 8490 fluorescence intensity (a.u.).

Consider “TCCTGTCACTCGGCCACACTTCAATCGCATCCAAAACATCCGGAGTCACCTAGTGCAG”, for which the binding signal is 8890 fluorescence intensity (a.u.). Under “AACAGATGTATTGCACCATAATTTTGTAGCTACCTCTCAACGGAGTCACCTAGTGCAG” stands 9030 fluorescence intensity (a.u.); under “ACCGTATCGTTGTCTGATTCGTCGATTCGTTCCATCATTACGGAGTCACCTAGTGCAG”, 9330 fluorescence intensity (a.u.). Under “CTCTGCTCTCTCGCCATTGCCGCCGCGGCGCCGCCTCCTCCGGAGTCACCTAGTGCAG” stands 9210 fluorescence intensity (a.u.); under “CGGAGGGAGGCGGAGGCGGTGGTGGTGGTGGTGGTGCCGGCGGAGTCACCTAGTGCAG”, 12500 fluorescence intensity (a.u.). As to “GATAATATTCACCTGTTCTTTCAATGCCCTTTTAGCAGAACGGAGTCACCTAGTGCAG”, the binding signal is 8510 fluorescence intensity (a.u.).

With “ATAAAACAAATGATCAAACGTTGAATAAAAAGTCAACGGCCGGAGTCACCTAGTGCAG”, the binding signal was 11100 fluorescence intensity (a.u.).

As for “GAATTTTAATTAATCACGTATTGGGTTTTTAGATGGACTCCGGAGTCACCTAGTGCAG”, the binding signal was 9060 fluorescence intensity (a.u.). Under “AAAGTTCATATGGTGTTCTAACAGGAGGTTTGTAATTTGTCGGAGTCACCTAGTGCAG” stands 8270 fluorescence intensity (a.u.); under “TATATATATATATATATATATATATTTCATATGAAACACACGGAGTCACCTAGTGCAG”, 8460 fluorescence intensity (a.u.). Under “CCTTTTGCGTTCCATACTCAACTCATCTTGCCGAACAAACCGGAGTCACCTAGTGCAG” stands 8700 fluorescence intensity (a.u.). Under “CTTTTTCCACACCTCACTTGCTAGATCTACCACCAAAAAGCGGAGTCACCTAGTGCAG” stands 10500 fluorescence intensity (a.u.); under “CTGATCCTTCGCCCTCGATTCGCTGCACTTGATCCGCCGCCGGAGTCACCTAGTGCAG”, 9570 fluorescence intensity (a.u.).

In the case of “AGCAAGTCATGACATCAAACTAGTCCATCGCATTCAAACTCGGAGTCACCTAGTGCAG”, the binding signal is 8210 fluorescence intensity (a.u.). Under “CTACTACGTACTAGCATAATGCTTTGTTTTTTTCCATTACCGGAGTCACCTAGTGCAG” stands 8540 fluorescence intensity (a.u.). Under “CTCTATACCATACGCCATCTCCATCATCTCTCGATCCATCCGGAGTCACCTAGTGCAG” stands 11300 fluorescence intensity (a.u.); under “CCGTTGACTTGGATTTGTTCCTTTTTCATTTTTTATCGTTCGGAGTCACCTAGTGCAG”, 14700 fluorescence intensity (a.u.). On to “TCCAACCGCTCGATCACCGCCGGTCTGACCGGCATACACACGGAGTCACCTAGTGCAG”, for which the binding signal was 10100 fluorescence intensity (a.u.). Under “AATTTGAATTGCATTTGTTCATTTGGCCTCCTGGTAAGTACGGAGTCACCTAGTGCAG” stands 8810 fluorescence intensity (a.u.); under “GCTCTGCACGTGCCCTGCGGTTGCTCCATGTTGATAGTAGCGGAGTCACCTAGTGCAG”, 8530 fluorescence intensity (a.u.). Under “TCTGCTGTATCCTTTCTTTGTTGGATTGTTTCTTCATATTCGGAGTCACCTAGTGCAG” stands 15600 fluorescence intensity (a.u.); under “GAAATGCACGGTTCTTTCTCGTTTCTCTGGCCATTTGATTCGGAGTCACCTAGTGCAG”, 10100 fluorescence intensity (a.u.). Under “CTGCCACTGCTAAAATATTTGTTCAAAATTTTGACTCTTTCGGAGTCACCTAGTGCAG” stands 8090 fluorescence intensity (a.u.). For the sequence “TGGGCACAAGGGTGTTTTGTATGGTCTCCTCAGGGAAATTCGGAGTCACCTAGTGCAG”, the binding signal was 9360 fluorescence intensity (a.u.).

For “TCCTATGTTTTTTTTTCTATTTCTTCATTTTTTCAATCCTCGGAGTCACCTAGTGCAG”, the binding signal was 11400 fluorescence intensity (a.u.). Under “GCGGTGGGAGGCTACTGCTGAGCGGGGCGGCGGCAGGACTCGGAGTCACCTAGTGCAG” stands 8070 fluorescence intensity (a.u.); under “TGATTGTCATGTTGACAAGCTATTGCTGTTCTTCAGTTTGCGGAGTCACCTAGTGCAG”, 8580 fluorescence intensity (a.u.).

For the sequence “TTATCCTCTTCATTGACTCCACCTTTGCTTCCTTCTCTACCGGAGTCACCTAGTGCAG”, the binding signal was 9670 fluorescence intensity (a.u.). Under “TTTCCCAACTCAATTTCCTCGATTTTTACGCACACGCTTTCGGAGTCACCTAGTGCAG” stands 10000 fluorescence intensity (a.u.); under “TAAATCTTGACCCTTTACTGCTAGCCTCAATGCATCGATCCGGAGTCACCTAGTGCAG”, 8180 fluorescence intensity (a.u.). Regarding “TTTTTTTCTTATTTTCTGTGTGTGTGTGTGTGCCTGGAATCGGAGTCACCTAGTGCAG”, the binding signal was 8050 fluorescence intensity (a.u.).

“GTGTGTTTTATTGCTTAAATATGTGAATGTCTTTTTTACACGGAGTCACCTAGTGCAG”: the binding signal was 9270 fluorescence intensity (a.u.).

As for “CTCACTACGAGTTTATATATATTCACATTTGCCTAAACTTCGGAGTCACCTAGTGCAG”, the binding signal is 8110 fluorescence intensity (a.u.). As for “TCATTTCAAGCGCCTTTTTTTTACACATAATACGATCAAGCGGAGTCACCTAGTGCAG”, the binding signal is 9170 fluorescence intensity (a.u.). Regarding “GAGGAGGAGCCTTAGGTAGTGGTGGATGGGGAGGAGGAGGCGGAGTCACCTAGTGCAG”, the binding signal was 10200 fluorescence intensity (a.u.). Under “GATTTTGTTCATTAATATCGTGTCTGTCCATGTCCAAGGACGGAGTCACCTAGTGCAG” stands 9700 fluorescence intensity (a.u.). Under “AACAATTTTTGGGTGCTTGTTCATATTTCATGTCCATGGTCGGAGTCACCTAGTGCAG” stands 8860 fluorescence intensity (a.u.).

For the origin of these results see paper PMC7819943, “Rice protein-binding microarrays: a tool to detect cis-acting elements near promoter regions in rice”.
